Test results as given in article PMC11550977.
These are yes or no findings as the source states them, for the method shown. In cells and extracts the contact can be indirect. Some binding calls cover weakened binding; strength is not graded here.

By UniProt entry, the sequences of proteins in these tests, tags left out.
UniProt P52732: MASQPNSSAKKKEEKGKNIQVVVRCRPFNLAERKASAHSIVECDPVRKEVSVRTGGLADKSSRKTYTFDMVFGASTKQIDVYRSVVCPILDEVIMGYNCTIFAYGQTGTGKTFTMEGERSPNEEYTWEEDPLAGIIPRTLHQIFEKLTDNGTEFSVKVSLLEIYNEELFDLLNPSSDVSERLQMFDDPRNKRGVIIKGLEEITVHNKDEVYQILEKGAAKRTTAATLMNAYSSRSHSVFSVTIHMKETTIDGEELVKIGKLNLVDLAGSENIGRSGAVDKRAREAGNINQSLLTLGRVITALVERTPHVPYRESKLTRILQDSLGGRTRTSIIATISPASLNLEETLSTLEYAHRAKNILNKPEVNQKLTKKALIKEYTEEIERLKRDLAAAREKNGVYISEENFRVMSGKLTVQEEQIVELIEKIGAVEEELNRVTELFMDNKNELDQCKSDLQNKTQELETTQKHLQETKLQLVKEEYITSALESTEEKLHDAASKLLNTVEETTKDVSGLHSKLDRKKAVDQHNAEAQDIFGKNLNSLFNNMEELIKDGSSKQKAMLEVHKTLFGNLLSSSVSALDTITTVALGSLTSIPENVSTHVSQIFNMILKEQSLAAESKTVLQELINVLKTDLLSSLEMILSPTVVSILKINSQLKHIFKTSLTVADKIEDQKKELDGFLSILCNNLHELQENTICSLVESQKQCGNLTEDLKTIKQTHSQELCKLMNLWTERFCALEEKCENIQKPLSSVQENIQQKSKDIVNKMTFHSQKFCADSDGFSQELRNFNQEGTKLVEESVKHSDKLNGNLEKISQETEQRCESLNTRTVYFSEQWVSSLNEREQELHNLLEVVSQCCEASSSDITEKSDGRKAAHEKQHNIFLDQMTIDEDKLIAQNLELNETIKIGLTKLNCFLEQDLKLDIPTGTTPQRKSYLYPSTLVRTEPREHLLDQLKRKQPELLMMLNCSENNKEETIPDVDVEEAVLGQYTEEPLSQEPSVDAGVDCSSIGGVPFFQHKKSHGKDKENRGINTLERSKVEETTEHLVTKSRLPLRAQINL

Target: T1, RACGAP1 (human (endogenous in HepG2 and HCC-LM3)) (UniProt Q9H0H5)
T1 sequence: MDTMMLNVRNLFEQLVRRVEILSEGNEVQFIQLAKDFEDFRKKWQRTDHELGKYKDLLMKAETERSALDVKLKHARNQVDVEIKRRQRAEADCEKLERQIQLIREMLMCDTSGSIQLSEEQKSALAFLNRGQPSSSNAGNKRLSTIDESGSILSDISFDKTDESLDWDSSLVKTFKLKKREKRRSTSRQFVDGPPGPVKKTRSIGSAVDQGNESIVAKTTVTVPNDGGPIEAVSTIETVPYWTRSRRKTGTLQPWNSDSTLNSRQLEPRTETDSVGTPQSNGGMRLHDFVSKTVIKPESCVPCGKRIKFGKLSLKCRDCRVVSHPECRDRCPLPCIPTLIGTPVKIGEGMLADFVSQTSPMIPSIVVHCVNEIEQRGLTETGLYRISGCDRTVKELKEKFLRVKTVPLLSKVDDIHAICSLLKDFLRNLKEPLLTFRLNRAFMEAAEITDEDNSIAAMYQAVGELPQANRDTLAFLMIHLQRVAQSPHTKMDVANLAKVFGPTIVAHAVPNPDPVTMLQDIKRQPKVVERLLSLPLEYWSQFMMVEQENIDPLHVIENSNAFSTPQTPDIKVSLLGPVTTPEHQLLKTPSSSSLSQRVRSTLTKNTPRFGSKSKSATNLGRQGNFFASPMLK
Test: co-IP; lysates of HepG2 and LM3 cells; 2 ug primary antibody overnight at 4°C, Protein A+G Agarose 1 h at 4°C, washed 5 times with PBS; Beyotime Immunoprecipitation Kit

Substance: KIF11 (from UniProt P52732 1-1056)
- binding: binds
